Results are given in words; binding and its absence hold for the method and conditions named. Binding calls can cover weak binding; strength is not graded here.
Columns and labels:
[1] = target: T1, RING1A (recombinant, pull-down) (Arabidopsis thaliana, UniProt Q9FKW0 1-522); test: pull-down
T1 sequence (looked up): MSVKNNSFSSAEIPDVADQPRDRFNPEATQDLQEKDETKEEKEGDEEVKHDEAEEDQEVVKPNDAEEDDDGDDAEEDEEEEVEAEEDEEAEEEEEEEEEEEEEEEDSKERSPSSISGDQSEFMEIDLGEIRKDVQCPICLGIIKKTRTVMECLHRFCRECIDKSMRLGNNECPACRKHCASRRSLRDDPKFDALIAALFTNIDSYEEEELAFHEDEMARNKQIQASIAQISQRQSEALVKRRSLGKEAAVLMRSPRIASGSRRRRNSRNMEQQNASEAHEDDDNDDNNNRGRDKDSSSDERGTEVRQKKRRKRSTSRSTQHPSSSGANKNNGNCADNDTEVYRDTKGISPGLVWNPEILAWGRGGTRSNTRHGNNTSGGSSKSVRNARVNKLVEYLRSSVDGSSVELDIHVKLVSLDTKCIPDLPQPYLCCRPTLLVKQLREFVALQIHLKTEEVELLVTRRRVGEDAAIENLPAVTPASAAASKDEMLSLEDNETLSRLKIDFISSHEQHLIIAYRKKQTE

By UniProt entry, the sequences of proteins in these tests, tags left out. Where a name states a change or a piece, a line headed by the entry shows the natural chain unless it says otherwise.
UniProt Q9M9N3: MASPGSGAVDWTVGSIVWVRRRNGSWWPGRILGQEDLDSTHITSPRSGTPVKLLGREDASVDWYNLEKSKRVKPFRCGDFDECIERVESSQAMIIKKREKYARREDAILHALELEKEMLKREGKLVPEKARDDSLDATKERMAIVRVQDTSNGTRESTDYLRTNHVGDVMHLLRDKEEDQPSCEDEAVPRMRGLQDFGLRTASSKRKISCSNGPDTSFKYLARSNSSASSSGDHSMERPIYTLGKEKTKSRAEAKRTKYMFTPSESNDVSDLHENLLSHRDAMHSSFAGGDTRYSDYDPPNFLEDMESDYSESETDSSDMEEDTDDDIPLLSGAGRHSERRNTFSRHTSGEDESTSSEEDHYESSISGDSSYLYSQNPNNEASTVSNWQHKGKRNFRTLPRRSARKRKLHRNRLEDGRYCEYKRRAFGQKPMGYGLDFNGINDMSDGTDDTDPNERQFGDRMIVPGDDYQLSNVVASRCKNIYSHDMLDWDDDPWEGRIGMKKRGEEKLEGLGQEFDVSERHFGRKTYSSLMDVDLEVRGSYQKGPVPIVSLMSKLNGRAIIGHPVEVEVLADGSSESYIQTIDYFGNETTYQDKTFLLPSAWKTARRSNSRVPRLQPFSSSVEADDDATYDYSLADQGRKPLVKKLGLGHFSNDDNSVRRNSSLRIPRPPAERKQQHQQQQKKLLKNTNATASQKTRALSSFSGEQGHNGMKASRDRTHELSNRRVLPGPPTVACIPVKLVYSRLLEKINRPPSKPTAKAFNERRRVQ

[2] = target: T2, AL2 (recombinant, pull-down) (Arabidopsis thaliana) (UniProt Q9SRM4); test: pull-down
T2 sequence: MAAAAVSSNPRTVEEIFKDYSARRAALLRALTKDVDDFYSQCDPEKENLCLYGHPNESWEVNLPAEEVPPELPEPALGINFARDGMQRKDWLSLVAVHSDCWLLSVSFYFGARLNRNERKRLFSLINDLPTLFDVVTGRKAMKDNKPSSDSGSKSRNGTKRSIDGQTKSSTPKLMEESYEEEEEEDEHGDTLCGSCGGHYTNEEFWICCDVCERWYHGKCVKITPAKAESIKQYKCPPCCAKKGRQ

Row | binding [1] | binding [2] | Substance
1 | binds | binds | BMI1B (recombinant, pull-down) (Arabidopsis thaliana)
2 | – | binds | PWWP1 (PEAT complex subunit) (from UniProt Q9M9N3)

Source: doi:10.1101/2024.09.12.612777 (bioRxiv, 2024)
